Measurements as given in PMC3890302.

By UniProt entry, the sequences of proteins in these tests, tags left out. Where a name states a change or a piece, a line headed by the entry shows the natural chain unless it says otherwise.
UniProt Q9AJ30: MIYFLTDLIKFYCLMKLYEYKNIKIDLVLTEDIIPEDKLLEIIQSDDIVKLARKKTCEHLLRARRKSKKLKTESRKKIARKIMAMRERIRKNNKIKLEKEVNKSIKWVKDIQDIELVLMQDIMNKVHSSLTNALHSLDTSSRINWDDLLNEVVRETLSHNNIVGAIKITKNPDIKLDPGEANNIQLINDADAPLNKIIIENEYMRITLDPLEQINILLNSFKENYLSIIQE
UniProt Q7DB80: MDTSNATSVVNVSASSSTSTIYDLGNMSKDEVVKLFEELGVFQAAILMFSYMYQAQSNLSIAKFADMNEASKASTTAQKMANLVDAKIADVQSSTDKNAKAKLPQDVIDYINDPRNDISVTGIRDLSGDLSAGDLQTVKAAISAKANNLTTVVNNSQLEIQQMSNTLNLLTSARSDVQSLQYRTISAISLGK

How the values were obtained:
[1] = molecular target: T1, His×6-tagged YgfZ (UniProt P0ADE8); test: pull-down; only the target purified
T1 sequence: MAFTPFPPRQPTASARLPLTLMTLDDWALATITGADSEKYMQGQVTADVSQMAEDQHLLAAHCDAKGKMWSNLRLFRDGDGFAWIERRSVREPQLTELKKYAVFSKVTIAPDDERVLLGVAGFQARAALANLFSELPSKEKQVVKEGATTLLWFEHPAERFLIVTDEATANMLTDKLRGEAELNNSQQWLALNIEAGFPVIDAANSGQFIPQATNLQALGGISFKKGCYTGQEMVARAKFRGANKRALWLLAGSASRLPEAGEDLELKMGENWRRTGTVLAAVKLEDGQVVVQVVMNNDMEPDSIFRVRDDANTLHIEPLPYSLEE

[2] = molecular target: His×6-tagged EscL (enterohemorrhagic E. coli O157:H7) (UniProt Q9AJ30); test: pull-down; only the target purified

tag-free EscA
binding [1]: no binding

tag-free EspA (from UniProt Q7DB80)
binding [2]: binds

These are yes or no findings as the source states them, for the method shown. Binding seen in cells or lysates may run through a third protein. For some assays here: A result given as binding can be weak or reduced; the word gives no strength. For some assays here: Tags and fused reporters may be left off the sequences shown.
